System: Staphylococcus aureus ATCC 43300 (MRSA)
Format: cell-based
Details: against MRSA, relative to in vitro toxicity
Procedure: All compounds submitted to CO‐ADD are initially screened against five bacterial strains (Staphylococcus aureus (MRSA), E. coli, Klebsiella pneumoniae, Pseudomonas aeruginosa, Acinetobacter baumannii) and two fungal strains (Candida albicans, Cryptococcus neoformans) at a single concentration (32 μg/mL or 20 μM) performed as a high‐throughput primary screening.[[11], [17a]] Any compounds that show significant growth inhibition against any of the tested strains at this step are then evaluated in a dose‐response assay against these same strains. […]
Smiles: C1C=CCCC(=CC1)C1=CCCC=CCC1.C[Pt]C.C[Pt]C […]
For all the bacterial assays, each strain was cultured in Cation-adjusted Mueller Hinton broth (CAMHB; Bacto Laboratories 212322) at 37 °C overnight. […] The resultant mid-log phase cultures were diluted with CAMHB (CFU mL−1 measured by OD600), then added to each well of the compound-containing plates (384-well non-binding surface (NBS) plates; Corning CLS3640), giving a cell density of 5 × 10^5 CFU mL−1 and a total volume of 50 μL. […] Inhibition of bacterial growth was determined measuring absorbance at 600 nm (OD600), using media only as negative control and bacteria without inhibitors as positive control. […]

Compound | therapeutic index
C1=C\CC/C=C\CC/1.[Cl-].[Cl-].[Pt+2] [Pt1, Pt(COD)Cl2] | > 100
C1=CCC/C=C\CC1.[I][Pt][I] [Pt2, Pt(COD)I2] | > 100

— publication PMC8596843, “Platinum Cyclooctadiene Complexes with Activity against Gram‐positive Bacteria” (Chemmedchem, 2021)
